Measured values taken from PMC8699236.
No constants are given. Whether binding was seen depends on the method and setting. Binding seen in cells or lysates may run through a third protein. These calls come from enrichment with a bait or labelling near it, and not all partners need be listed. Where a sequence is shown, tags or fusion partners need not be part of it.

T1: TRIB2 GFP-fusion protein (human) (UniProt Q92519)
T1 sequence: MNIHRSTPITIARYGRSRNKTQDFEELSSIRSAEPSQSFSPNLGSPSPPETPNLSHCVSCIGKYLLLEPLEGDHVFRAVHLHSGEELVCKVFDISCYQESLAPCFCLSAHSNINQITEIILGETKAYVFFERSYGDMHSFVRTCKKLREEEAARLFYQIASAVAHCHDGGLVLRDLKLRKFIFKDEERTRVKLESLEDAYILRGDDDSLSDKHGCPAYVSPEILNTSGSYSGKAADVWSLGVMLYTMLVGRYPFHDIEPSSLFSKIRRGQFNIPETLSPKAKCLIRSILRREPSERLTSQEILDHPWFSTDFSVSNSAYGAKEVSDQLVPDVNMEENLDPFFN


These binders were tested against T1, TRIB2 GFP-fusion protein (human) (assay: affinity purification with mass spectrometry; GFP-fusion bait from lysate of transfected HEK293T cells on GFP-Trap beads, 2 h at 4 °C; lysis buffer 50 mM Tris pH 8.0, 1 mM EDTA, 0.1% NP40, 250 mM NaCl, 10% glycerol; on-bead digestion, LC-MS, label-free, against GFP control (or mutant against mutant or wild type)).

binding | Binder
binds | RAB3 GTPase Activating Protein Catalytic Subunit 1 (protein, UniProt Q15042 1-981) MAADSEPESEVFEITDFTTASEWERFISKVEEVLNDWKLIGNSLGKPLEKGIFTSGTWEEKSDEISFADFKFSVTHHYLVQESTDKEGKDELLEDVVPQSMQDLLGMNNDFPPRAHCLVRWYGLREFVVIAPAAHSDAVLSESKCNLLLSSVSIALGNTGCQVPLFVQIHHKWRRMYVGECQGPGVRTDFEMVHLRKVPNQYTHLSGLLDIFKSKIGCPLTPLPPVSIAIRFTYVLQDWQQYFWPQQPPDIDALVGGEVGGLEFGKLPFGACEDPISELHLATTWPHLTEGIIVDNDVYSDLDPIQAPHWSVRVRKAENPQCLLGDFVTEFFKICRRKESTDEILGRSAFEEEGKETADITHALSKLTEPASVPIHKLSVSNMVHTAKKKIRKHRGVEESPLNNDVLNTILLFLFPDAVSEKPLDGTTSTDNNNPPSESEDYNLYNQFKSAPSDSLTYKLALCLCMINFYHGGLKGVAHLWQEFVLEMRFRWENNFLIPGLASGPPDLRCCLLHQKLQMLNCCIERKKARDEGKKTSASDVTNIYPGDAGKAGDQLVPDNLKETDKEKGEVGKSWDSWSDSEEEFFECLSDTEELKGNGQESGKKGGPKEMANLRPEGRLYQHGKLTLLHNGEPLYIPVTQEPAPMTEDLLEEQSEVLAKLGTSAEGAHLRARMQSACLLSDMESFKAANPGCSLEDFVRWYSPRDYIEEEVIDEKGNVVLKGELSARMKIPSNMWVEAWETAKPIPARRQRRLFDDTREAEKVLHYLAIQKPADLARHLLPCVIHAAVLKVKEEESLENISSVKKIIKQIISHSSKVLHFPNPEDKKLEEIIHQITNVEALIARARSLKAKFGTEKCEQEEEKEDLERFVSCLLEQPEVLVTGAGRGHAGRIIHKLFVNAQRAAAMTPPEEELKRMGSPEERRQNSVSDFPPPAGREFILRTTVPRPAPYSKALPQRMYSVLTKEDFRLAGAFSSDTSFF
binds | FKBP Prolyl Isomerase 4 (protein, UniProt Q02790 1-459) MTAEEMKATESGAQSAPLPMEGVDISPKQDEGVLKVIKREGTGTEMPMIGDRVFVHYTGWLLDGTKFDSSLDRKDKFSFDLGKGEVIKAWDIAIATMKVGEVCHITCKPEYAYGSAGSPPKIPPNATLVFEVELFEFKGEDLTEEEDGGIIRRIQTRGEGYAKPNEGAIVEVALEGYYKDKLFDQRELRFEIGEGENLDLPYGLERAIQRMEKGEHSIVYLKPSYAFGSVGKEKFQIPPNAELKYELHLKSFEKAKESWEMNSEEKLEQSTIVKERGTVYFKEGKYKQALLQYKKIVSWLEYESSFSNEEAQKAQALRLASHLNLAMCHLKLQAFSAAIESCNKALELDSNNEKGLFRRGEAHLAVNDFELARADFQKVLQLYPNNKAAKTQLAVCQQRIRRQLAREKKLYANMFERLAEEENKAKAEASSGDHPTDTEMKEEQKSNTAGSQSQVETEA
binds | CDC42 Effector Protein 1 (protein, UniProt Q00587 1-391) MPGPQGGRGAATMSLGKLSPVGWVSSSQGKRRLTADMISHPLGDFRHTMHVGRGGDVFGDTSFLSNHGGSSGSTHRSPRSFLAKKLQLVRRVGAPPRRMASPPAPSPAPPAISPIIKNAISLPQLNQAAYDSLVVGKLSFDSSPTSSTDGHSSYGLDSGFCTISRLPRSEKPHDRDRDGSFPSEPGLRRSDSLLSFRLDLDLGPSLLSELLGVMSLPEAPAAETPAPAANPPAPTANPTGPAANPPATTANPPAPAANPSAPAATPTGPAANPPAPAASSTPHGHCPNGVTAGLGPVAEVKSSPVGGGPRGPAGPALGRHWGAGWDGGHHYPEMDARQERVEVLPQARASWESLDEEWRAPQAGSRTPVPSTVQANTFEFADAEEDDEVKV
binds | Plakophilin 2 (protein, UniProt Q99959 1-881) MAAPGAPAEYGYIRTVLGQQILGQLDSSSLALPSEAKLKLAGSSGRGGQTVKSLRIQEQVQQTLARKGRSSVGNGNLHRTSSVPEYVYNLHLVENDFVGGRSPVPKTYDMLKAGTTATYEGRWGRGTAQYSSQKSVEERSLRHPLRRLEISPDSSPERAHYTHSDYQYSQRSQAGHTLHHQESRRAALLVPPRYARSEIVGVSRAGTTSRQRHFDTYHRQYQHGSVSDTVFDSIPANPALLTYPRPGTSRSMGNLLEKENYLTAGLTVGQVRPLVPLQPVTQNRASRSSWHQSSFHSTRTLREAGPSVAVDSSGRRAHLTVGQAAAGGSGNLLTERSTFTDSQLGNADMEMTLERAVSMLEADHMLPSRISAAATFIQHECFQKSEARKRVNQLRGILKLLQLLKVQNEDVQRAVCGALRNLVFEDNDNKLEVAELNGVPRLLQVLKQTRDLETKKQITDHTVNLRSRNGWPGAVAHACNPSTLGGQGGRITRSGVRDQPDQHGLLWNLSSNDKLKNLMITEALLTLTENIIIPFSGWPEGDYPKANGLLDFDIFYNVTGCLRNMSSAGADGRKAMRRCDGLIDSLVHYVRGTIADYQPDDKATENCVCILHNLSYQLEAELPEKYSQNIYIQNRNIQTDNNKSIGCFGSRSRKVKEQYQDVPMPEEKSNPKGVEWLWHSIVIRMYLSLIAKSVRNYTQEASLGALQNLTAGSGPMPTSVAQTVVQKESGLQHTRKMLHVGDPSVKKTAISLLRNLSRNLSLQNEIAKETLPDLVSIIPDTVPSTDLLIETTASACYTLNNIIQNSYQNARDLLNTGGIQKIMAISAGDAYASNKASKAASVLLYSLWAHTELHHAYKKAQFKKTDFVNSRTAKAYHSLKD
binds | TBC1 Domain Family Member 4 (protein, UniProt O60343 1-1298) MEPPSCIQDEPFPHPLEPEPGVSAQPGPGKPSDKRFRLWYVGGSCLDHRTTLPMLPWLMAEIRRRSQKPEAGGCGAPAAREVILVLSAPFLRCVPAPGAGASGGTSPSATQPNPAVFIFEHKAQHISRFIHNSHDLTYFAYLIKAQPDDPESQMACHVFRATDPSQVPDVISSIRQLSKAAMKEDAKPSKDNEDAFYNSQKFEVLYCGKVTVTHKKAPSSLIDDCMEKFSLHEQQRLKIQGEQRGPDPGEDLADLEVVVPGSPGDCLPEEADGTDTHLGLPAGASQPALTSSRVCFPERILEDSGFDEQQEFRSRCSSVTGVQRRVHEGSQKSQPRRRHASAPSHVQPSDSEKNRTMLFQVGRFEINLISPDTKSVVLEKNFKDISSCSQGIKHVDHFGFICRESPEPGLSQYICYVFQCASESLVDEVMLTLKQAFSTAAALQSAKTQIKLCEACPMHSLHKLCERIEGLYPPRAKLVIQRHLSSLTDNEQADIFERVQKMKPVSDQEENELVILHLRQLCEAKQKTHVHIGEGPSTISNSTIPENATSSGRFKLDILKNKAKRSLTSSLENIFSRGANRMRGRLGSVDSFERSNSLASEKDYSPGDSPPGTPPASPPSSAWQTFPEEDSDSPQFRRRAHTFSHPPSSTKRKLNLQDGRAQGVRSPLLRQSSSEQCSNLSSVRRMYKESNSSSSLPSLHTSFSAPSFTAPSFLKSFYQNSGRLSPQYENEIRQDTASESSDGEGRKRTSSTCSNESLSVGGTSVTPRRISWRQRIFLRVASPMNKSPSAMQQQDGLDRNELLPLSPLSPTMEEEPLVVFLSGEDDPEKIEERKKSKELRSLWRKAIHQQILLLRMEKENQKLEASRDELQSRKVKLDYEEVGACQKEVLITWDKKLLNCRAKIRCDMEDIHTLLKEGVPKSRRGEIWQFLALQYRLRHRLPNKQQPPDISYKELLKQLTAQQHAILVDLGRTFPTHPYFSVQLGPGQLSLFNLLKAYSLLDKEVGYCQGISFVAGVLLLHMSEEQAFEMLKFLMYDLGFRKQYRPDMMSLQIQMYQLSRLLHDYHRDLYNHLEENEISPSLYAAPWFLTLFASQFSLGFVARVFDIIFLQGTEVIFKVALSLLSSQETLIMECESFENIVEFLKNTLPDMNTSEMEKIITQVFEMDISKQLHAYEVEYHVLQDELQESSYSCEDSETLEKLERANSQLKRQNMDLLEKLQVAHTKIQALESNLENLLTRETKMKSLIRTLEQEKMAYQKTVEQLRKLLPADALVNCDLLLRDLNCNPNNKAKIGNKP
binds | HAUS Augmin Like Complex Subunit 8 (protein, UniProt Q9BT25 1-410) MADSSGRGAGKPATGPTNSSSAKKKDKRVQGGRVIESRYLQYEKKTTQKAPAGDGSQTRGKMSEGGRKSSLLQKSKADSSGVGKGDLQSTLLEGHGTAPPDLDLSAINDKSIVKKTPQLAKTISKKPESTSFSAPRKKSPDLSEAMEMMESQTLLLTLLSVKMENNLAEFERRAEKNLLIMCKEKEKLQKKAHELKRRLLLSQRKRELADVLDAQIEMLSPFEAVATRFKEQYRTFATALDTTRHELPVRSIHLEGDGQQLLDALQHELVTTQRLLGELDVGDSEENVQVLDLLSELKDVTAKKDLELRRSFAQVLELSAEASKEAALANQEVWEETQGMAPPSRWYFNQDSACRESGGAPKNTPLSEDDNPGASSAPAQATFISPSEDFSSSSQAEVPPSLSRSGRDLS
binds | SRC Kinase Signaling Inhibitor 1 (protein, UniProt Q9C0H9 1-1183) MGNAPSQDPERSSPPMLSADDAEYPREYRTLGGGGGGGSGGRRFSNVGLVHTSERRHTVIAAQSLEALSGLQKADADRKRDAFMDHLKSKYPQHALALRGQQDRMREQPNYWSFKTRSSRHTQGAQPGLADQAAKLSYASAESLETMSEAELPLGFSRMNRFRQSLPLSRSASQTKLRSPGVLFLQFGEETRRVHITHEVSSLDTLHALIAHMFPQKLTMGMLKSPNTAILIKDEARNVFYELEDVRDIQDRSIIKIYRKEPLYAAFPGSHLTNGDLRREMVYASRESSPTRRLNNLSPAPHLASGSPPPGLPSGLPSGLQSGSPSRSRLSYAGGRPPSYAGSPVHHAAERLGGAPAAQGVSPSPSAILERRDVKPDEDLASKAGGMVLVKGEGLYADPYGLLHEGRLSLAAAAGDPFAYPGAGGLYKRGSVRSLSTYSAAALQSDLEDSLYKAAGGGGPLYGDGYGFRLPPSSPQKLADVAAPPGGPPPPHSPYSGPPSRGSPVRQSFRKDSGSSSVFAESPGGKTRSAGSASTAGAPPSELFPGPGERSLVGFGPPVPAKDTETRERMEAMEKQIASLTGLVQSALLRGSEPETPSEKIEGSNGAATPSAPCGSGGRSSGATPVSGPPPPSASSTPAGQPTAVSRLQMQLHLRGLQNSASDLRGQLQQLRKLQLQNQESVRALLKRTEAELSMRVSEAARRQEDPLQRQRTLVEEERLRYLNDEELITQQLNDLEKSVEKIQRDVSHNHRLVPGPELEEKALVLKQLGETLTELKAHFPGLQSKMRVVLRVEVEAVKFLKEEPQRLDGLLKRCRGVTDTLAQIRRQVDEGVWPPPNNLLSQSPKKVTAETDFNKSVDFEMPPPSPPLNLHELSGPAEGASLTPKGGNPTKGLDTPGKRSVDKAVSVEAAERDWEEKRAALTQYSAKDINRLLEETQAELLKAIPDLDCASKAHPGPAPTPDHKPPKAPHGQKAAPRTEPSGRRGSDELTVPRYRTEKPSKSPPPPPPRRSFPSSHGLTTTRTGEVVVTSKKDSAFIKKAESEELEVQKPQVKLRRAVSEVARPASTPPIMASAIKDEDDEDRIIAELESGGGSVPPMKVVTPGASRLKAAQGQAGSPDKSKHGKQRAEYMRIQAQQQATKPSKEMSGSNETSSPVSEKPSASRTSIPVLTSFGARNSSISF
